Experiment [1] has as its target T1, SERPINE1 mRNA binding protein 1, HA-tagged (SERBP1-HA) (UniProt Q6AXS5).
T1 sequence: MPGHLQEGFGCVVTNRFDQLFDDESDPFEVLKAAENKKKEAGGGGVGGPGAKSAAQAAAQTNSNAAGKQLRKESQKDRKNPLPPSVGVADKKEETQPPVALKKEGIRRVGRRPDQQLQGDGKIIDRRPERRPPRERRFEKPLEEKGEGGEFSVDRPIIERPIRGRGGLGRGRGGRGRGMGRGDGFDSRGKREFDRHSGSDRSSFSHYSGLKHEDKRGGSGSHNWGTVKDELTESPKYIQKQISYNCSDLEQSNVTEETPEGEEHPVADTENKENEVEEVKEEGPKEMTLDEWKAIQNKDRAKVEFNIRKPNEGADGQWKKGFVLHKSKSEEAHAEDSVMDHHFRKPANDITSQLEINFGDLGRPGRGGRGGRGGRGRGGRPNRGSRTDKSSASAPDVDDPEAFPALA
Nature of the experiment: co-IP; KMM cells lentivirally transduced with SERBP1-HA and the partner (SIRT1-7, SIRT3-Myc or vIL-6-Flag; also SIRT3-Myc with or without vIL-6-Flag); lysate immunoprecipitated with anti-HA antibody on magnetic beads at 4°C overnight, washed with TBST, Western blotting. On the technique in general: Immunoblotting shows a protein as a band on a membrane.

Experiment [2] deals with T2, SERPINE1 mRNA binding protein 1 (SERBP1), endogenous (rat (endogenous in MM and KMM cells)) (UniProt Q6AXS5).
T2 sequence: T1 sequence
The experiment is described as follows: co-IP; endogenous proteins in MM and KMM cell lysates; immunoprecipitated with anti-SERBP1 antibody, immunoblotted with anti-SIRT3, 6 and 7 antibodies.

These are yes or no findings as the source states them, for the method shown. In cells and extracts the contact can be indirect. Binding can be weak; no strength is given. For some of these results: Sequences can lack the tags named with a protein.

This passage reports binding results from PMC10959363.

Regarding SIRT6 (lentiviral, SIRTs-Myc) (enzyme), the binding result in experiment [1] is on record as “binds”.

Regarding SIRT7 (lentiviral, SIRTs-Myc) (enzyme), the binding result in experiment [1] was “binds”.

As for “Sirtuin 3 (SIRT3), endogenous (rat (endogenous in MM and KMM cells)) (enzyme)”, the binding result in experiment [2] was “binds”.

For the substance “Sirtuin 3, Myc-tagged (SIRT3-Myc) (enzyme)”, the binding entry in experiment [1] is recorded as “binds”.
